Measurements taken from paper PMC12007717.
Results are given in words; binding and its absence hold for the method and conditions named. In cells and extracts the contact can be indirect. Here binding means that the protein was enriched with, or labelled near, the bait; the list need not be complete. Tags and fused reporters may be left off the sequences shown.

Chains of the proteins cited; added tags and fusions are not shown.
UniProt Q07963: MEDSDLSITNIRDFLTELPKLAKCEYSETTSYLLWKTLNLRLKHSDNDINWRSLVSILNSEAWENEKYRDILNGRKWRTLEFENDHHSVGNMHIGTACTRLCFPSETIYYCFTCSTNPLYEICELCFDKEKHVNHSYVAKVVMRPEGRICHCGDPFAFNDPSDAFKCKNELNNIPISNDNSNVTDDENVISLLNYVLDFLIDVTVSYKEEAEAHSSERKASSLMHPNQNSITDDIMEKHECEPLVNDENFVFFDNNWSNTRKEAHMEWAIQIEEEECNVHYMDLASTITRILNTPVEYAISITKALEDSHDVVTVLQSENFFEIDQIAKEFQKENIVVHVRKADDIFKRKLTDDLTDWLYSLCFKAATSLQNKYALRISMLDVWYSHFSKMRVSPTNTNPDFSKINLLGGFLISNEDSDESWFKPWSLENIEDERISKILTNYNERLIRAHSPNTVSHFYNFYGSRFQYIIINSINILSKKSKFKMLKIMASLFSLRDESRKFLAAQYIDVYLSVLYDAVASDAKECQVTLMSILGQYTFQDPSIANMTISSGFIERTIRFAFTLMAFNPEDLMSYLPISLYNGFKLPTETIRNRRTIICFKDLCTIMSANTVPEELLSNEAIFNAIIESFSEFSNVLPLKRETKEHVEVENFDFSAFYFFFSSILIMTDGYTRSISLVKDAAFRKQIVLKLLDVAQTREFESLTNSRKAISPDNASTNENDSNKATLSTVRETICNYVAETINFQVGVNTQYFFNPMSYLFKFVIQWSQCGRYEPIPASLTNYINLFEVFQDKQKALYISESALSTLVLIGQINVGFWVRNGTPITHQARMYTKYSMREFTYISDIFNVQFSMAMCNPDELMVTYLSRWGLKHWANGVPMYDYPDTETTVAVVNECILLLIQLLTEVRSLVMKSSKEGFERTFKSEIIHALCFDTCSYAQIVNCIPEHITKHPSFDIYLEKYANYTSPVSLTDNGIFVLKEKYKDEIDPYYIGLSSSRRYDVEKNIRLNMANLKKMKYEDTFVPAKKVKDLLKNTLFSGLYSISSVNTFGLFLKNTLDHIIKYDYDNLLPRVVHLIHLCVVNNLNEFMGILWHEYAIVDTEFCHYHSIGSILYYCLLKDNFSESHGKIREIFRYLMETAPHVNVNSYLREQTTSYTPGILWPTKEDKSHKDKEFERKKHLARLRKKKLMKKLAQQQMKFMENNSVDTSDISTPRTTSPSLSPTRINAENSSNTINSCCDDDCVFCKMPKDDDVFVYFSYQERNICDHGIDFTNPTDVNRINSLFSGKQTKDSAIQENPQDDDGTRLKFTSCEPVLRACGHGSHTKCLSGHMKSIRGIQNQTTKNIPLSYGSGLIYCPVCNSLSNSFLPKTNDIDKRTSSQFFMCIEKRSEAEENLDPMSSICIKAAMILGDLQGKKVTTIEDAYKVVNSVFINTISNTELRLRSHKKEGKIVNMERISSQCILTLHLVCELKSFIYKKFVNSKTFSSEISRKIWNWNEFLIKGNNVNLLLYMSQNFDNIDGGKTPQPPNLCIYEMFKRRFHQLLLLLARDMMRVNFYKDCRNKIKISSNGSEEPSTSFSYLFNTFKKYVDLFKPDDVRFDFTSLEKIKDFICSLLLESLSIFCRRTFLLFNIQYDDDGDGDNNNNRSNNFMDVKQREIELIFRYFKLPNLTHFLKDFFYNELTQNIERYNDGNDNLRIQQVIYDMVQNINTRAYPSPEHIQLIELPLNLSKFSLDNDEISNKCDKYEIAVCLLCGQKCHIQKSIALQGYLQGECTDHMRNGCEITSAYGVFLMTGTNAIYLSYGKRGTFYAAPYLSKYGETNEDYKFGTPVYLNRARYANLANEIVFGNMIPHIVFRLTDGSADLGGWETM
UniProt P35201: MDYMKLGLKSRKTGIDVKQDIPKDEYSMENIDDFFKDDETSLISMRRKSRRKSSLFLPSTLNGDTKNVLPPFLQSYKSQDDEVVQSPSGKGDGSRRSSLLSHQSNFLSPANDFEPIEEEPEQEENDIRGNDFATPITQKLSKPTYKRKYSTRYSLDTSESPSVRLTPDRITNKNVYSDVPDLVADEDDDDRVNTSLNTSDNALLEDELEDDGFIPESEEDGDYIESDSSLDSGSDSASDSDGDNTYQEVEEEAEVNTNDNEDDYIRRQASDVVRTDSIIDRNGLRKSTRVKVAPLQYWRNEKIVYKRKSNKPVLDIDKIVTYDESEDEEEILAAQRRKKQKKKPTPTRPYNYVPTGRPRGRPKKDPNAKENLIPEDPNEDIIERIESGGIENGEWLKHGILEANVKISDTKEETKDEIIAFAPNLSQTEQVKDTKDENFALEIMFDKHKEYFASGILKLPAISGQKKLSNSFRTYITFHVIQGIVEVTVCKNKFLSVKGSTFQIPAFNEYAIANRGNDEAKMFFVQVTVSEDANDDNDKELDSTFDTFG
UniProt P40460: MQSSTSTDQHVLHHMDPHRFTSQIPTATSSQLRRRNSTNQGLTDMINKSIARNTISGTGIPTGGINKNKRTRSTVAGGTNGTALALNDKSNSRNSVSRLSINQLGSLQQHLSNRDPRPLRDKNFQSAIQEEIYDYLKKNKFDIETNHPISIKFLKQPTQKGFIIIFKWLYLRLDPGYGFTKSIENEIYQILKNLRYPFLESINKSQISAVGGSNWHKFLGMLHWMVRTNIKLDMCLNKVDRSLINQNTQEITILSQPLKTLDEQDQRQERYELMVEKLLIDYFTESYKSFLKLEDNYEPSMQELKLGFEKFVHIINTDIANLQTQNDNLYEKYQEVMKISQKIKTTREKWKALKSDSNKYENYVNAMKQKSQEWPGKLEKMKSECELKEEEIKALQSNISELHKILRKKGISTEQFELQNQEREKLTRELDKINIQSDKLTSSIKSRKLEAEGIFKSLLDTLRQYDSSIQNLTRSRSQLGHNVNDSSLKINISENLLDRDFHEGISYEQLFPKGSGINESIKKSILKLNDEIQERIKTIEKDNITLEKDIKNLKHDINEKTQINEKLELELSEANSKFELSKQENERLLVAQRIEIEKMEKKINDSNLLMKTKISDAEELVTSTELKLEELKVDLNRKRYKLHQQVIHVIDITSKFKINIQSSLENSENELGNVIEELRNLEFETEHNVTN

T1: Dad1-3FLAG (S. cerevisiae) (UniProt Q12248)
T1 sequence: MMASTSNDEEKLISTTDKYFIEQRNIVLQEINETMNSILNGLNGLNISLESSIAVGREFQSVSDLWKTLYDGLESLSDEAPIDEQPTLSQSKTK

T2: Dsn1-6His-3FLAG (S. cerevisiae) (UniProt P40568)
T2 sequence: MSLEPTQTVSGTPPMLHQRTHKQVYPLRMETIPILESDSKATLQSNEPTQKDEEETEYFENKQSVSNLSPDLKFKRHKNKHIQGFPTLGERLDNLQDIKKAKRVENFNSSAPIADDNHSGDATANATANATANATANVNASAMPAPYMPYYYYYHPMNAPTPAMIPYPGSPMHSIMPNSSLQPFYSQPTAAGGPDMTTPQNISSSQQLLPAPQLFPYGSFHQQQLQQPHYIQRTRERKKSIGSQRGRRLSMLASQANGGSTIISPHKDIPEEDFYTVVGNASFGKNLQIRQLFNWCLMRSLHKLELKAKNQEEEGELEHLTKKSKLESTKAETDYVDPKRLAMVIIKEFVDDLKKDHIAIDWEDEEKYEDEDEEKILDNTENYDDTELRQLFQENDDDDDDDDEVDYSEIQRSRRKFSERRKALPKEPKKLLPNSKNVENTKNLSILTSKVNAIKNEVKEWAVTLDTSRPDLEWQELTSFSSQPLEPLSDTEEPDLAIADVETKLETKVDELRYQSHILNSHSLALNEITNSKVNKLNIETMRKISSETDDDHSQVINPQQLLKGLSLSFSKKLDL

B1: Dam1 (protein, UniProt P53267 1-343)
chain: MSEDKAKLGTTRSATEYRLSIGSAPTSRRSSMGESSSLMKFADQEGLTSSVGEYNENTIQQLLLPKIRELSDSIITLDSNFTRLNFIHESLADLNESLGSLLYGIMSNSWCVEFSQAPHDIQDDLIAIKQLKSLEDEKNNLVMELSNMERGIKRKKDEQGENDLAKASQNKQFNQPLFPSSQVRKYRSYDNRDKRKPSKIGNNLQVENEEDYEDDTSSEASFVLNPTNIGMSKSSQGHVTKTTRLNNNTNSKLRRKSILHTIRNSIASGADLPIENDNVVNLGDLHPNNRISLGSGAARVVNGPVTKNRNSMFSGRAERKPTESRHSVAKKTEKKINTRPPFR
B2: Ask1 (protein, UniProt P35734 1-292)
chain: MDSASKEETLEKLDQEITVNLQKIDSNLSFCFHKITQDIIPHVATYSEICERIMDSTEWLGTMFQETGLVNLQANAAAPVGNAPVKSLVSNNVGIFPTSAEEASRQSQTDNGPNEADSAVHVNRDVHSMFNNDSIDDFHTANITSTGQILKLPDSSDEDTGSEAVPSREQTDLTGEGHGGADDEQDESTIQRQSRKRKISLLLQQQYGSSSSMVPSPIVPNKMRKQLAHEEHINNDGDNDDENSNNIESSPLKQGHHHPKGQADDNNEGPDEEESTKEVPKPGTIIHFSTNR
B3: Duo1 (protein, UniProt P53168 1-247)
chain: MSEQSQLDDSTIDKLIPQIFNEMRSNLNNTTNKFPKSTGGGASDNISANSNSIRSFNSITTQSLLKESESLDKITAMIKNVTAALKNNLPVYVNQVHEVCKSTNSILDSWINIHSQAGYIHKLMSDQTYLKLINDRLHNENVNTNDEDGSTLHNVIALKKKEILDLRQKLENRKGEKDAAPAKPPNQGLNPRYGVQSGRRPVPSAGISNNGRVRKTHVPASKRPSGIPRVTNRWTKPTASSSRKMFR

target: T1, Dad1-3FLAG (S. cerevisiae); experiment: affinity purification with mass spectrometry; one-step anti-Flag purification of Dad1-Flag from yeast lysate, Buffer H with 250 mM KCl; silver-stained PAGE and mass spectrometry; WT and pGAL-MPS1 backgrounds

binding, binds:
B1
B2

target: T2, Dsn1-6His-3FLAG (S. cerevisiae); experiment: affinity purification with mass spectrometry; one-step anti-Flag purification of Dsn1-His-Flag or Ndc80-Flag from yeast lysate, Buffer H with 150 mM KCl; Rapigest elution, trypsin, Orbitrap Fusion; WT, pGAL-MPS1, mps1-1 and ndc80 phosphomutant backgrounds

binding, binds:
Ubr2 (from UniProt Q07963 1-1872)
Mif2 (from UniProt P35201 1-549)
Ndc80 (wild type) (from UniProt P40460 1-691)
B3
B1
